These are yes or no findings as the source states them, for the method shown. In cells and extracts the contact can be indirect. Some entries that bind do so weakly or less than the wild type. For part of these data: Where a sequence is shown, tags or fusion partners need not be part of it. Each block holds one molecule with its values, some of them ahead of it.
Experiments:
Experiment in all cases: co-IP; ectopically expressed tagged proteins, cell line not stated for these panels; IP lysis buffer, antibody 2 h at 4 °C, protein A/G magnetic beads overnight at 4 °C, western blot; in Fig. 5D cells treated with SC79 (10 μM) and CQ (10 μM) for 24 h
[1] = biological target: T1, Flag-tagged LHPP (UniProt Q9H008)
T1 sequence: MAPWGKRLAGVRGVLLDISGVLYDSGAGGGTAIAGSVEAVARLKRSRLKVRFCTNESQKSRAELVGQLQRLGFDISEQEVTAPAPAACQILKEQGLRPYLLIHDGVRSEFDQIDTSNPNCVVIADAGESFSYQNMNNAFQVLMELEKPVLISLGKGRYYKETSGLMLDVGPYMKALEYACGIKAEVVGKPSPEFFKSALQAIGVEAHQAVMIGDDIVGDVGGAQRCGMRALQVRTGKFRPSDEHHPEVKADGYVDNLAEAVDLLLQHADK

Chains of the proteins cited; added tags and fusions are not shown.
UniProt Q13309: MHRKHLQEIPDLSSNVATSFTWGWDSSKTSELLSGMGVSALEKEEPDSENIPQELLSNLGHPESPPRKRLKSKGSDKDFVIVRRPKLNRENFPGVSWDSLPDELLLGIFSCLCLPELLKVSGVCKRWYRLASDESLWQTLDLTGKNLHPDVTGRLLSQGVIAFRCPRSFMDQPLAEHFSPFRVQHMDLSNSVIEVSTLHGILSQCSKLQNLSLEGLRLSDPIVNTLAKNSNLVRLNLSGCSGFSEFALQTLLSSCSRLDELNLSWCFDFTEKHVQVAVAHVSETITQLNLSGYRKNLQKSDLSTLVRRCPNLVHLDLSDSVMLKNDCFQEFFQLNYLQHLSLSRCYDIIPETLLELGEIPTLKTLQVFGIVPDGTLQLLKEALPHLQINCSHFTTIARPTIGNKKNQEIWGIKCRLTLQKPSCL
UniProt P31749: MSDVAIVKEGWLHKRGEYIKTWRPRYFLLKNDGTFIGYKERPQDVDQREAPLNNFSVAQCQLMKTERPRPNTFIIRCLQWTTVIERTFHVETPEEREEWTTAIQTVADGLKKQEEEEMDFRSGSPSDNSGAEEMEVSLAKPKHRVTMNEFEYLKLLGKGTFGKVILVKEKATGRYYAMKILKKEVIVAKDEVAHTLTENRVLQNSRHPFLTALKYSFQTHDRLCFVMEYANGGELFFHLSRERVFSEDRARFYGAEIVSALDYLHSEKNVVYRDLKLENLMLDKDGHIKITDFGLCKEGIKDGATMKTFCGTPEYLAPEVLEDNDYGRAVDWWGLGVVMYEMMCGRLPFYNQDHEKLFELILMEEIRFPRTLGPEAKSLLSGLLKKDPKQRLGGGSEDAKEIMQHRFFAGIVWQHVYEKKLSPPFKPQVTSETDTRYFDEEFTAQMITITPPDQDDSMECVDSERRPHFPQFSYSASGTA
UniProt O15379: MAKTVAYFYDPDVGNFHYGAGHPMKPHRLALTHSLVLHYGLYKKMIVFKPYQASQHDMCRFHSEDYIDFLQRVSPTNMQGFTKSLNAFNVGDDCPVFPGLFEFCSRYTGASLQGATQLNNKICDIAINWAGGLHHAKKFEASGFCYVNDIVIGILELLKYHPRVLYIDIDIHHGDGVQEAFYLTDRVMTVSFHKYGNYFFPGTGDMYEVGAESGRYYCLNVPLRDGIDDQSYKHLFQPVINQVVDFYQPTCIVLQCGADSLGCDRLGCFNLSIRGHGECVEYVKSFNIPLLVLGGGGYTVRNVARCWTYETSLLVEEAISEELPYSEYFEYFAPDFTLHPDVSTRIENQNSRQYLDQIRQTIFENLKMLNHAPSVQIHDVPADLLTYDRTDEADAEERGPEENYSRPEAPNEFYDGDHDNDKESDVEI

[2] = biological target: Flag-tagged wild-type SKP2 (UniProt Q13309)
[3] = biological target: Myc-tagged AKT1 (UniProt P31749)

- binding [1]: binds
Molecule: HA-tagged HDAC3 (from UniProt O15379 1-428) (enzyme)

- binding [2]: binds
Molecule: Myc-tagged AKT1 (from UniProt P31749 1-480) (enzyme)

- binding [3]: binds
B1: Flag-tagged LHPP (enzyme, UniProt Q9H008 1-270)
chain: MAPWGKRLAGVRGVLLDISGVLYDSGAGGGTAIAGSVEAVARLKRSRLKVRFCTNESQKSRAELVGQLQRLGFDISEQEVTAPAPAACQILKEQGLRPYLLIHDGVRSEFDQIDTSNPNCVVIADAGESFSYQNMNNAFQVLMELEKPVLISLGKGRYYKETSGLMLDVGPYMKALEYACGIKAEVVGKPSPEFFKSALQAIGVEAHQAVMIGDDIVGDVGGAQRCGMRALQVRTGKFRPSDEHHPEVKADGYVDNLAEAVDLLLQHADK

Reference: paper PMC11390745
